Experimental data from patent publication US20210155697A1 (UNITY BIOTECHNOLOGY, published 2021).
Results are given in words; binding and its absence hold for the method and conditions named. Some binding calls cover weakened binding; strength is not graded here.

Sequences of proteins named here, by UniProt entry; tags and fusion partners are left off. A change or cut given only in a name is not applied to a line headed by its entry. Residues count along the entry.
UniProt Q02763: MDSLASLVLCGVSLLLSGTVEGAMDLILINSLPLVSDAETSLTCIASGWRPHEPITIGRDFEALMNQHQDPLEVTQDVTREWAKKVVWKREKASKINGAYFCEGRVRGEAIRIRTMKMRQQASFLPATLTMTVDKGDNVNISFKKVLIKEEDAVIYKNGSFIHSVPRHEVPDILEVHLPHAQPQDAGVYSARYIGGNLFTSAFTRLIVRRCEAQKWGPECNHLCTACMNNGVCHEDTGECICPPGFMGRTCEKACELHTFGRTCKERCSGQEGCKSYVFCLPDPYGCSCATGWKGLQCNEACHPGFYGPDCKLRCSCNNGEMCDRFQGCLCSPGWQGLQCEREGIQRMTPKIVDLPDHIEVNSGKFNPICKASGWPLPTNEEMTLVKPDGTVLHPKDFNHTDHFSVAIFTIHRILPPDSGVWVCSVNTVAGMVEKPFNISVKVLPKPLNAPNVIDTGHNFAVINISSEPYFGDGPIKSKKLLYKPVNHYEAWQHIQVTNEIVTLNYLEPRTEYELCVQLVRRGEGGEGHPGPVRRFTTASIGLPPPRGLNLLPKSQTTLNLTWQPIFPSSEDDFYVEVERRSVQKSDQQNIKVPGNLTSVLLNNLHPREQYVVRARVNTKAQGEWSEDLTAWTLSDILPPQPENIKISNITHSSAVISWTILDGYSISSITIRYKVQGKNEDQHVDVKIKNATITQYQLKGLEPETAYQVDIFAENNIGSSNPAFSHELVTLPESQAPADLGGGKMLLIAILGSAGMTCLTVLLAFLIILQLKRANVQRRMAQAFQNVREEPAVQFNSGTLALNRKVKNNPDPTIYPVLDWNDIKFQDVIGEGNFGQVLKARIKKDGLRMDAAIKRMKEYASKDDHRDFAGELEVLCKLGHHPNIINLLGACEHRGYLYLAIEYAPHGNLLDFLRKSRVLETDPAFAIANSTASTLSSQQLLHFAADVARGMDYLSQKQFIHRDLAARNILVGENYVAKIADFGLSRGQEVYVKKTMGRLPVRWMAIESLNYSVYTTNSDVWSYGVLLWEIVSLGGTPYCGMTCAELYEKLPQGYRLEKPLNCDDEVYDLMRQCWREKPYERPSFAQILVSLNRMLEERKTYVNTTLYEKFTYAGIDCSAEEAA
UniProt O15123, residues 19-496: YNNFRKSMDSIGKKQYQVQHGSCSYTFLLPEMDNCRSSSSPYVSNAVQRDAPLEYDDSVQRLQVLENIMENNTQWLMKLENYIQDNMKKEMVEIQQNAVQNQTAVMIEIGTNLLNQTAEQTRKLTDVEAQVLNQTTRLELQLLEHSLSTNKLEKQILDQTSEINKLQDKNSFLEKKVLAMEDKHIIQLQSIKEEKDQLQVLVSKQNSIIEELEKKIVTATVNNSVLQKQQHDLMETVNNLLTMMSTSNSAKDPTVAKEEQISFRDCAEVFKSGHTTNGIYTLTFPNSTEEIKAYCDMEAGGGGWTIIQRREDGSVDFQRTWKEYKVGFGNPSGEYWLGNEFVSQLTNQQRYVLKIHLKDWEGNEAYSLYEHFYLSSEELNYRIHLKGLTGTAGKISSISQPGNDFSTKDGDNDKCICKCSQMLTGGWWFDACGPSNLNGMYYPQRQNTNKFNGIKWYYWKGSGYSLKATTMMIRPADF

Legend:
[1] = target: recombinant his-tagged Tie2 ECD (Homo sapiens (Human)) (UniProt Q02763); experiment: BLI, his-tagged Tie2 ECD on Ni-NTA biosensor, antibody pre-bound
[2] = target: recombinant his-tagged Tie2 ECD (Homo sapiens (Human)) (UniProt Q02763); experiment: BLI, his-tagged Tie2 ECD (100 nM) on Ni-NTA biosensor, buffer or anti-Tie2 antibody (100 nM), then Ang2 at 100 nM

Angiopoietin-2 (from UniProt O15123 19-496) (ligand)
binding [1]: binds
binding [2]: binds
